Results from paper PMC4859692.
No constants are given. Whether binding was seen depends on the method and setting. Binding seen in cells or lysates may run through a third protein. Binding can be weak; no strength is given. Sequences can lack the tags named with a protein.

Chains of the proteins cited; added tags and fusions are not shown. Lines headed by an entry give the natural chain unless they say otherwise; changes in a name come on top.
UniProt Q54IX5: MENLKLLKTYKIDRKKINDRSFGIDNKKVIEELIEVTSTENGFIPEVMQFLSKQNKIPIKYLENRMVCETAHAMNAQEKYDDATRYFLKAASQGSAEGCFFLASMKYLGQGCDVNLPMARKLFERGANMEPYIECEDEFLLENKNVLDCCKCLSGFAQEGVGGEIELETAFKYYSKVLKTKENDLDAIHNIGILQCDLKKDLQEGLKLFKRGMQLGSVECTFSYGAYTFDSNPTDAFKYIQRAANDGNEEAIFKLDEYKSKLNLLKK

T1: Ino1-RFP (Dictyostelium inositol-3-phosphate synthase with a C-terminal RFP tag) (Dictyostelium discoideum) (UniProt Q54N49)
T1 sequence: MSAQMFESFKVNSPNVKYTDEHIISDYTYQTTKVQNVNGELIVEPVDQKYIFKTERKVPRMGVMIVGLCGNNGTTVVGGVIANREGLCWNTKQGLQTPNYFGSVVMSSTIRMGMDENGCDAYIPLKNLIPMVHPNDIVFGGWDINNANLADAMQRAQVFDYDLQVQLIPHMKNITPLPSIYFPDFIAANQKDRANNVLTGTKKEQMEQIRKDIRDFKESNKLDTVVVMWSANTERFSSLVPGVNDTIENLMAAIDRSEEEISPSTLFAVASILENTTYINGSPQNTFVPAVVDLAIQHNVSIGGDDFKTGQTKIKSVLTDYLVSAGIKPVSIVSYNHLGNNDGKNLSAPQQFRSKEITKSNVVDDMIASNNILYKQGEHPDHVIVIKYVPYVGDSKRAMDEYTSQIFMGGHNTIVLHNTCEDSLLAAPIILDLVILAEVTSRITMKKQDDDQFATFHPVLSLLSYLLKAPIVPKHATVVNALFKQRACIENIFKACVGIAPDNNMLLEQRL


Legend:
[1] = target: T1, Ino1-RFP (Dictyostelium inositol-3-phosphate synthase with a C-terminal RFP tag) (Dictyostelium discoideum); experiment: co-IP; ino1- cells coexpressing Ino1-RFP and a FLAG-tagged protein; lysate on anti-RFP-coated (RFP-Trap) beads, 1 h at 4°C; Western blot with anti-RFP and anti-FLAG M2
[2] = target: GFP-tagged Q54IX5 (Dictyostelium discoideum) (UniProt Q54IX5); experiment: co-IP; reverse: ino1- cells coexpressing Ino1-RFP (or mRFPmars only as control) and GFP-Q54IX5; lysate on anti-GFP-coated (GFP-Trap) beads, 1 h at 4°C; Western blot with anti-GFP and anti-RFP

binding [1] | binding [2] | Molecule
binds |  | FLAG-tagged Q54IX5 (from UniProt Q54IX5)
 | binds | Ino1-RFP (Dictyostelium inositol-3-phosphate synthase with a C-terminal RFP tag) (enzyme, UniProt Q54N49 1-511) MSAQMFESFKVNSPNVKYTDEHIISDYTYQTTKVQNVNGELIVEPVDQKYIFKTERKVPRMGVMIVGLCGNNGTTVVGGVIANREGLCWNTKQGLQTPNYFGSVVMSSTIRMGMDENGCDAYIPLKNLIPMVHPNDIVFGGWDINNANLADAMQRAQVFDYDLQVQLIPHMKNITPLPSIYFPDFIAANQKDRANNVLTGTKKEQMEQIRKDIRDFKESNKLDTVVVMWSANTERFSSLVPGVNDTIENLMAAIDRSEEEISPSTLFAVASILENTTYINGSPQNTFVPAVVDLAIQHNVSIGGDDFKTGQTKIKSVLTDYLVSAGIKPVSIVSYNHLGNNDGKNLSAPQQFRSKEITKSNVVDDMIASNNILYKQGEHPDHVIVIKYVPYVGDSKRAMDEYTSQIFMGGHNTIVLHNTCEDSLLAAPIILDLVILAEVTSRITMKKQDDDQFATFHPVLSLLSYLLKAPIVPKHATVVNALFKQRACIENIFKACVGIAPDNNMLLEQRL
